# Test system: TERA-2 cells
# Experiment: Confocal fluorescence microscopy of treated TERA-2 cells
# Type: cell-based
# Conditions: 7 days
# Procedure: Even at the lowest treatment concentration, the fluorescence of compound 9 is visible, with 0.1-10 μM treatments easily imaged.
# FIGS. 21, 22 and 23 respectively show SHSY5Y cells (neuroblastoma) and fibroblast cells and TERA-2 cells treated with 10 μM compound 9, and imaged using a confocal fluorescence microscope after 8 hours (SHSY5Y) and 24 hours (fibroblasts) and 7 days (TERA-2).
compound,measurement,setting,value
"CC(C)N1CCC(C)(C)c2cc(C#Cc3ccc(C(=O)O)cc3)ccc21 [compound 9, 4-2-[4,4-Dimethyl-1-(propan-2-yl)-1,2,3,4-tetrahydroquinolin-6-yl]ethynylbenzoic acid]",fluorescence visibility and localisation,"TERA-2 cells, 10 μM",clearly visible with obvious localisation around the nuclear envelope
same,fluorescence of compound in cells,"TERA-2 cells, 0.1-10 μM treatments",easily imaged
same,cellular localisation,"TERA-2 cells, 10, 1, 0.1, 0.01 μM",mainly localised around the nuclear envelope
same,fluorescence of compound in cells,"TERA-2 cells, lowest treatment concentration (0.01 μM)",visible

# Source: patent US10759762B2, “Fluorescent synthetic retinoids” (High Force Research Limited, priority 2014, dated 2020)
